Data as given in PubChem BioAssay AID1053208 (Peter MacCallum Cancer Centre, 2014).

- Screen: 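Find knock-downs that sensitise mouse osteosarcoma cells to doxorubicin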 (primary screen)
- Cell system: mouse osteosarcoma cells, early-passage culture from an engineered mouse model of fibroblastic bone tumour
- Reagent: siRNA pool against mouse genes, 40 nM
- Timing: about 120 h (48 h before drug, then 72 h with drug)
- Conditions: doxorubicin 100 nM for 72 h, roughly 30-40% inhibitory dose
- Read-out: 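Luminescent ATP signal taken as viability with or without 100 nM doxorubicin for 72 h; mean of two wells set against non-targeting siRNA and turned into robust z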
- Direction: viability z-score with doxorubicin: higher = more viable cells under doxorubicin; viability z-score without drug: higher = more viable cells with knock-down alone
- Active means: 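Called active if knock-down leaves viability unchanged without drug (z within -2 to 2) but lowers it with doxorubicin (z at or under -2)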
This is a random part of about 17,000 deposited reagents. Of all reagents, 788 (4.7%) were called active. 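Calls rest on z-score classes alone; an extra cut-off of viability at most 70% of control was not applied to them.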 Entries without a mark were called inactive. The numbers tell different reagents against one gene apart. Further read-outs or replicates are left out here. No sequences are given here.

For Ephb1, what was measured?
combined z-score class: no change with or without drug; viability z-score with doxorubicin: 0; viability z-score without drug: -1.18

For U2af1, how do the results read?
combined z-score class: low cell count with and without drug; viability z-score with doxorubicin: -4.27; viability z-score without drug: -2.19

For Zfp9, what was measured?
combined z-score class: no change with or without drug; viability z-score with doxorubicin: -0.22; viability z-score without drug: 1.01

For Hsh2d, what does the deposit list?
combined z-score class: high cell count with doxorubicin only; viability z-score with doxorubicin: 2.47; viability z-score without drug: -0.51

For Hsf2, what was measured?
combined z-score class: no change with or without drug; viability z-score with doxorubicin: -1.57; viability z-score without drug: -0.51

What did the screen give for Mims1?
combined z-score class: no change with or without drug; viability z-score with doxorubicin: -0.45; viability z-score without drug: 0.84

With Il3, how do the results read?
combined z-score class: high cell count without drug only; viability z-score with doxorubicin: 1.69; viability z-score without drug: 2.19

How did the screen score Gnas?
combined z-score class: no change with or without drug; viability z-score with doxorubicin: -0.67; viability z-score without drug: -0.51

With Sf3b2, how do the results read?
combined z-score class: low cell count with and without drug; viability z-score with doxorubicin: -5.62; viability z-score without drug: -4.55

For Pmm2, how do the results read?
combined z-score class: no change with or without drug; viability z-score with doxorubicin: 0.67; viability z-score without drug: 0.67

What is on record for Klhl5?
combined z-score class: no change with or without drug; viability z-score with doxorubicin: 0; viability z-score without drug: 0

With Irak1, what does the deposit list?
combined z-score class: no change with or without drug; viability z-score with doxorubicin: -0.45; viability z-score without drug: -1.01

With Trim9 #1, what was measured?
combined z-score class: no change with or without drug; viability z-score with doxorubicin: 0.22; viability z-score without drug: 0.17

What is on record for Trim9 #2?
combined z-score class: no change with or without drug; viability z-score with doxorubicin: -0.11; viability z-score without drug: -0.17

For Tmem117, how do the results read?
combined z-score class: no change with or without drug; viability z-score with doxorubicin: -0.45; viability z-score without drug: -0.51

With Eif4g2, what does the deposit list?
combined z-score class: no change with or without drug; viability z-score with doxorubicin: -1.12; viability z-score without drug: -0.17

Look-ups from the list:
For “combined z-score class”, Hsf2 reads no change with or without drug
Klhl5, viability z-score without drug: 0
Ephb1, viability z-score with doxorubicin → 0

The results go on.
What is on record for Ccl21b?
combined z-score class: no change with or without drug; viability z-score with doxorubicin: -0.79; viability z-score without drug: -0.67

How did the screen score Misp?
combined z-score class: no change with or without drug; viability z-score with doxorubicin: 0.9; viability z-score without drug: 1.35

How did the screen score Mrpl21?
combined z-score class: no change with or without drug; viability z-score with doxorubicin: 0.22; viability z-score without drug: -1.85

For Or52p2, what does the deposit list?
combined z-score class: no change with or without drug; viability z-score with doxorubicin: 0.79; viability z-score without drug: 0.67

With Lias, what does the deposit list?
combined z-score class: no change with or without drug; viability z-score with doxorubicin: -0.34; viability z-score without drug: -0.17

How did the screen score Hnrnpll?
combined z-score class: no change with or without drug; viability z-score with doxorubicin: -0.9; viability z-score without drug: 1.18

Which result is listed for Tmem164?
combined z-score class: no change with or without drug; viability z-score with doxorubicin: 1.12; viability z-score without drug: 0.51

What is on record for Osgin2?
combined z-score class: no change with or without drug; viability z-score with doxorubicin: 1.01; viability z-score without drug: 1.18

For Or4f54, what does the deposit list?
combined z-score class: low cell count with doxorubicin only (active); viability z-score with doxorubicin: -2.02; viability z-score without drug: -1.85

With Csnk2a2ip, how do the results read?
combined z-score class: low cell count with doxorubicin only (active); viability z-score with doxorubicin: -2.36; viability z-score without drug: -1.85

What is on record for Grm3?
combined z-score class: no change with or without drug; viability z-score with doxorubicin: 0.67; viability z-score without drug: 1.01

How did the screen score Phxr4?
combined z-score class: low cell count with doxorubicin only (active); viability z-score with doxorubicin: -2.47; viability z-score without drug: -1.18

With Cd82, how do the results read?
combined z-score class: no change with or without drug; viability z-score with doxorubicin: -0.45; viability z-score without drug: -0.51

What is on record for Bcl2a1b?
combined z-score class: no change with or without drug; viability z-score with doxorubicin: 0.79; viability z-score without drug: 0.84

Which result is listed for Bpifb2?
combined z-score class: no change with or without drug; viability z-score with doxorubicin: 1.12; viability z-score without drug: 1.18

Which result is listed for C630004L07Rik?
combined z-score class: no change with or without drug; viability z-score with doxorubicin: 0.45; viability z-score without drug: 1.35

What is on record for Ppid?
combined z-score class: no change with or without drug; viability z-score with doxorubicin: -0.22; viability z-score without drug: -0.51

What did the screen give for Alppl2?
combined z-score class: no change with or without drug; viability z-score with doxorubicin: -1.12; viability z-score without drug: 1.52

How did the screen score Mgp?
combined z-score class: no change with or without drug; viability z-score with doxorubicin: -1.12; viability z-score without drug: 1.69

With Tmem100, what was measured?
combined z-score class: high cell count without drug only; viability z-score with doxorubicin: -1.12; viability z-score without drug: 2.36
